The list shows a part of the results. The main result of the screen is listed elsewhere. These columns were measured beside it and carry no call. The list favours compounds with an active or inconclusive main result. Potencies come from curve fits of mixed quality, noted in brackets.
Test: qHTS Assay to Find Inhibitors of Chronic Active B-Cell Receptor Signaling
Conditions: ABC-DLBCL IkBa-CBG/CBR reporter, luminescence ratio (green luciferase fused to IkBa over red control in TMD8 lymphoma cells), 4 h
Summary of the method: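 Concentration-response series (up to 46 uM) were applied to TMD8 dual-reporter cells for 4 h at 37C with doxycycline. Green/red ratio, after filter-overlap correction, defined %Activity; red signal alone was normalised to basal cells and zero luminescence.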

[1] = measured here: CBR red luminescence, cell number
[2] = measured here: IkBa-CBG green luminescence

In the case of O=C(Nc1ccccc1F)Nc1ccccc1OC(F)F, the AC50 [1] is reported as 15.8 µM [falling, partial curve, poor fit].
In the case of COc1ccc2[nH]cc(/C=C/C(=O)c3ccccc3)c2c1, the AC50 [1] is reported as 11.2 µM [falling, single point].
In the case of Cc1ccccc1-c1nc(CN2CCC(C(=O)N3CCN(c4ccccn4)CC3)CC2)c(C)o1, the AC50 [1] is reported as 0.082 µM [rising, full curve, poor fit].
With CCOc1ccc(NC(=O)COc2ccc(C(=O)NCc3cccc(OC)c3)cc2OC)cc1 the AC50 [1] was 29.1 µM [rising, single point].
For CCSc1nnc(NS(=O)(=O)c2ccc(C)cc2)s1, the AC50 [1] was 5.17 µM [rising, partial curve, poor fit].
With Nc1nnc(SC2CCCC2)s1 the AC50 [1] was 14.6 µM [rising, partial curve, poor fit].
With O=C(N/N=C/c1ccco1)c1ccccn1 the AC50 [1] was 35.5 µM [falling, single point].
In the case of COc1ccc(CN2CCC(CO)(Cc3ccccc3C(F)(F)F)CC2)c(F)c1, the AC50 [1] is reported as 4.47 µM [rising, single point].
With COc1ccc2c3c(cccc13)N(C)N=C2C the AC50 [1] was 35.5 µM [rising, single point].
For Cc1onc(-c2c(F)cccc2Cl)c1C(=O)NCc1cccs1, the AC50 [1] was 29.1 µM [rising, single point].
With O=S(=O)(N/N=C1\CCCc2ccccc21)c1ccccc1 the AC50 [1] was 1.16 µM [falling, partial curve, poor fit].
With CC(C)c1ccc(NS(=O)(=O)c2ccc3[nH]cc(C(=O)NCCc4ccccc4)c(=O)c3c2)cc1 the AC50 [1] was 10 µM [rising, single point].
In the case of COc1ccc(CN(C)CC(O)COC(c2ccccc2)c2ccccc2)c(OC)c1OC (stereo unspecified), the AC50 [1] is reported as 12.6 µM [falling, partial curve, poor fit].
For CCc1ccc2c(COn3nnc4ccc(S(=O)(=O)N(C)C)cc43)cc(=O)oc2c1, the AC50 [1] was 15.8 µM [rising, partial curve] and the AC50 [2] was 20 µM [falling, single point].
For C/C(=N/NC(=O)c1ccc2c(c1)OCO2)c1cccc([N+](=O)[O-])c1, the AC50 [1] was 4.47 µM [falling, full curve].
With Cc1cc(C)cc(N(CC(=O)N2CCC(C)CC2)S(C)(=O)=O)c1 the AC50 [1] was 13 µM [rising, partial curve, poor fit].
For O=C(NCC1CCCO1)C1CCC(=O)N1CCc1ccccc1 (stereo unspecified), the AC50 [1] was 14.1 µM [rising, partial curve, poor fit].
With COc1ccc(Cl)cc1NC(=O)C(C)N(C)Cc1cccc(Cl)c1Cl (stereo unspecified) the AC50 [1] was 6.51 µM [rising, partial curve, poor fit].
In the case of Oc1ccccc1-c1n[nH]c(=S)n1Cc1ccco1, the AC50 [1] is reported as 16.4 µM [rising, single point].
With N/C(=N\OC(=O)CCC1CCCCC1)c1ccccn1 the AC50 [1] was 0.708 µM [rising, full curve, poor fit].
In the case of O=c1/c(=C/c2ccc(CNS(=O)(=O)c3ccccc3)o2)sc2n1CCN=2, the AC50 [1] is reported as 1.78 µM [falling, full curve, poor fit].
For Nc1nc(SCc2ccccc2Cl)ns1, the AC50 [1] was 13 µM [rising, partial curve, poor fit].
For CCC[C@@H](NS(=O)(=O)c1ccc(C)cc1)C(=O)Oc1ccc2c3c(c(=O)oc2c1)CCC3, the AC50 [1] was 29.1 µM [falling, single point].
With COc1cc(NC(=O)c2ccccc2Cl)ccc1NC(=O)c1ccco1 the AC50 [1] was 20 µM [falling, partial curve, poor fit].
With CC[C@]12c3[nH]c4ccc(Cl)cc4c3CCN1C(=O)[C@@H](CC(=O)NC(C)(C)C)C[C@@H]2C(=O)N1CCN(C(=O)c2ccco2)CC1 the AC50 [1] was 8.2 µM [falling, partial curve].
For Cc1ccc2c(Cl)cc(Cl)c(OCC(=O)Nc3ccc(C)c(S(=O)(=O)N(C)C)c3)c2n1, the AC50 [1] was 11.6 µM [rising, partial curve, poor fit].
With Cc1ccc(N2CC(C(=O)Nc3ncc([N+](=O)[O-])s3)CC2=O)cc1 (stereo unspecified) the AC50 [1] was 31.6 µM [falling, single point].
In the case of CCOC(=O)c1ccc(NC(=O)CNC(=O)C2CCCCC2)cc1, the AC50 [1] is reported as 0.891 µM [rising, partial curve, poor fit].
In the case of CC(=O)Nc1ccc(NC(=O)CSc2nnc(-c3ccco3)n2Cc2ccco2)cc1, the AC50 [1] is reported as 2.51 µM [rising, single point].
In the case of CCN1C(=O)c2n[nH]c(C(=O)OC)c2C1=O, the AC50 [1] is reported as 1.58 µM [falling, partial curve, poor fit].
With O=C(NNC(=O)C1CCN(Cc2ccccc2)CC1)c1cccc(Cl)c1 the AC50 [1] was 29.1 µM [falling, single point].
For CCCN(C(=O)COC(=O)CC1CCCCC1)c1c(N)n(Cc2ccccc2)c(=O)[nH]c1=O, the AC50 [1] was 0.092 µM [falling, full curve, poor fit].
With NS(=O)(=O)c1ccc(NC=C2C(=O)OC3(CCCCC3)OC2=O)cc1 the AC50 [1] was 12.6 µM [rising, single point].
In the case of Cc1cc(N=Nc2ccccc2)c(NCC(O)C(O)C(O)CO)cc1C (stereo unspecified), the AC50 [1] is reported as 22.4 µM [rising, single point].
With CCSc1nc2sc3c(c2c(=O)n1-c1ccccc1C)CCN(C)C3 the AC50 [1] was 20 µM [rising, single point].
With Cn1cc(C(=O)N/N=C/c2ccc3c(c2)OCO3)c2ccccc21 the AC50 [1] was 14.1 µM [falling, partial curve, poor fit].
In the case of Cc1nc2c3cnn(-c4ccccc4)c3ncn2n1, the AC50 [1] is reported as 0.116 µM [falling, full curve, poor fit].
In the case of COc1ccc(-c2cc(C(=O)Nc3cc(C)nn3-c3ccccc3)no2)cc1, the AC50 [1] is reported as 0.631 µM [rising, full curve, poor fit].
With Cc1ccc2nc(/C(C#N)=C\c3ccc(N4CCOCC4)o3)[nH]c2c1 the AC50 [1] was 11.6 µM [falling, single point].
For O=C(N/N=C\c1cc2c(cc1[N+](=O)[O-])OCO2)c1cccs1, the AC50 [1] was 35.5 µM [falling, single point].
With CCN(C(=O)CSc1nc2nc(C)cc(C)n2n1)c1cccc(C)c1 the AC50 [1] was 12.6 µM [rising, partial curve].
In the case of O/C(=C\c1nc2ccccc2[nH]1)c1cccs1, the AC50 [1] is reported as 35.5 µM [falling, single point].
With CCOC(=O)c1c(-c2ccc(-c3ccccc3)cc2)csc1NC(=O)CNCCN(C)C the AC50 [2] was 35.5 µM [falling, single point].
With O=C(/C=C/c1ccco1)N(Cc1ccccc1F)C1CCS(=O)(=O)C1 (stereo unspecified) the AC50 [1] was 35.5 µM [rising, single point].
In the case of Cc1ccc(O)c(C(=O)CC(=O)c2ccc(Cl)cc2)c1, the AC50 [1] is reported as 0.891 µM [rising, full curve, poor fit].
In the case of COc1cc(C(=O)Nc2ccc(C)cc2)c2ccccc2n1, the AC50 [1] is reported as 12.6 µM [rising, partial curve, poor fit] and the AC50 [2] is reported as 10 µM [falling, partial curve].
In the case of CC(=O)Nc1ccc(C(=O)Nc2cc(C(F)(F)F)ccc2-n2cnc3ccccc32)cc1, the AC50 [1] is reported as 6.51 µM [rising, single point].
For OC(CON=C1c2ccccc2-c2ccccc21)CN1CCNCC1 (stereo unspecified), the AC50 [1] was 14.1 µM [falling, single point].
In the case of O=Cc1ccccc1OCc1nnsc1Cl, the AC50 [1] is reported as 8.91 µM [rising, partial curve, poor fit].
With O=C(NCCNC(=O)c1ccc(-c2ccc(Cl)c(Cl)c2)o1)c1cnccn1 the AC50 [1] was 11.2 µM [rising, partial curve].
With Cc1ccc(-c2[nH]c3cc(C(N)=O)ccc3c(=O)c2O)cc1 the AC50 [1] was 4.47 µM [rising, single point].
With O=C1CN(C(=O)c2ccccc2F)C(c2ccc(F)cc2)c2cc(Br)ccc2N1 (stereo unspecified) the AC50 [1] was 2.82 µM [falling, full curve, poor fit].
For COc1ccc(CSCC(=O)N/N=C/c2ccccc2OCc2ccccc2)cc1, the AC50 [1] was 20.6 µM [falling, partial curve].
In the case of Fc1ccc(/C=N/Nc2nc3ccccc3[nH]2)cc1F, the AC50 [1] is reported as 35.5 µM [falling, single point].
With CCC1(c2ccc(Cl)cc2)NC(=O)N(CC(=O)NC2CCCC(C)C2C)C1=O (stereo unspecified) the AC50 [1] was 2.06 µM [falling, partial curve].
In the case of O=C(c1sc2ccccc2c1Cl)N1CCN(c2ncccn2)CC1, the AC50 [1] is reported as 2.31 µM [rising, partial curve].
In the case of CCOC(=O)c1sc(N2C(=O)C(O)=C(C(=O)c3ccco3)C2c2ccco2)nc1C (stereo unspecified), the AC50 [1] is reported as 5.62 µM [falling, partial curve, poor fit].
For O=C(CCc1nc2ccccc2c(=O)[nH]1)Nc1cc(Cl)ccc1N1CCCC1, the AC50 [1] was 0.58 µM [rising, full curve].
With COc1ccc(CCNC(=O)C(NC(=O)OCc2ccccc2)C(C)C)cc1OC (stereo unspecified) the AC50 [1] was 3.98 µM [rising, full curve, poor fit].
With COc1ccc(-c2noc(CN(C(=O)c3ccc4c(c3)OCO4)C(C)C)n2)cc1OC the AC50 [1] was 6.51 µM [rising, single point].
For CCOC(=O)N1CCN(C(=S)NC(=O)c2ccc(F)cc2)CC1, the AC50 [1] was 11.2 µM [rising, partial curve, poor fit].
For Cc1cc(C)cc(N(C(C)C(=O)NCCC2=CCCCC2)S(C)(=O)=O)c1 (stereo unspecified), the AC50 [1] was 20.6 µM [rising, single point].
For O=C(Nc1ccc(Cl)cn1)c1cc2ccccc2o1, the AC50 [1] was 6.51 µM [falling, full curve].
For O=c1oc2cccnc2n1CCS(=O)(=O)c1ccc(F)cc1, the AC50 [1] was 7.08 µM [falling, partial curve].
